For 1 compound, OMRI signal amplification results are on record in patent publication US10421725B2, “Alkoxyamines for the treatment of cancers” (Centre National De La Recherche Scientifique, priority 2013, dated 2019).

The data set in a line: Monitoring of ALK-1 homolysis by Overhauser-enhanced MRI (OMRI). Type of data set: physicochemical. The note with it: 0.8 mM, culture cell medium, 37° C. An excerpt: EPR Cavity and MRI devices. The OMRI experiment were done in a C-shaped 0.2 T MRI system (Magnetom Open Viva, Siemens, Erlangen, Germany) and a resonant TE011 transverse electric mode EPR cavity setup (Bruker, Wissembourg, France) as described previously. The EPR cavity, placed at the center of the magnet, was used to saturate the electron spin transition of the nitroxide SG1 produced upon ALK-1 homolysis. A homemade saddle-shaped MRI coil (28 mm in diameter and 29 mm in length) in the EPR cavity was used for imaging.
Electron spin saturation was carried out at 5.4573 GHz, corresponding to the first line at high field from the center of the EPR spectrum. The proton frequency was 8.24 MHz. Sample temperature was kept at 37° C.
OMRI experiments were performed in two NMR tubes (4 mm inner diameter): one containing 0.8 mM of SG1 nitroxide in phosphate buffer saline (not shown) and the other with 0.8 mM of ALK-1 in DMEM, 10% FCS. ALK-1 homolysis was followed for 48 hours.
Pulse sequences. […] All MR adjustments were done manually, using the same fixed receiver amplification gain for both measurements, without (Soff) and with (Son) HF irradiation, so that signals can be directly compared and Overhauser enhancements (Son/Soff) calculated.
Post-processing. […] Signal intensity was measured in a rectangular region of interest of 2 mm^2 positioned in the NMR tube area. […]

The structures appear in SMILES notation.

`CCOP(=O)(OCC)C(N(OC(C)c1cc[n+](C)cc1)C(C)(C)C)C(C)(C)C` (centres unmarked) [ALK-1, N-methyl 4-(1-((tert-butyl(1-(diethoxyphosphoryl)-2,2-dimethylpropyl)amino)oxy)ethyl)pyridin-1-ium 4-methylbenzenesulfonate]: the OMRI signal amplification (at 5 mM (so in the source) after beginning of homolysis) worked out at 1 fold and the OMRI signal amplification (at 2825 min after beginning of homolysis) was found to be 6 fold.
